The source of these data is paper PMC9665845.

Protein sequences, listed by entry. Tags and fused reporters are not part of them.
UniProt P35222: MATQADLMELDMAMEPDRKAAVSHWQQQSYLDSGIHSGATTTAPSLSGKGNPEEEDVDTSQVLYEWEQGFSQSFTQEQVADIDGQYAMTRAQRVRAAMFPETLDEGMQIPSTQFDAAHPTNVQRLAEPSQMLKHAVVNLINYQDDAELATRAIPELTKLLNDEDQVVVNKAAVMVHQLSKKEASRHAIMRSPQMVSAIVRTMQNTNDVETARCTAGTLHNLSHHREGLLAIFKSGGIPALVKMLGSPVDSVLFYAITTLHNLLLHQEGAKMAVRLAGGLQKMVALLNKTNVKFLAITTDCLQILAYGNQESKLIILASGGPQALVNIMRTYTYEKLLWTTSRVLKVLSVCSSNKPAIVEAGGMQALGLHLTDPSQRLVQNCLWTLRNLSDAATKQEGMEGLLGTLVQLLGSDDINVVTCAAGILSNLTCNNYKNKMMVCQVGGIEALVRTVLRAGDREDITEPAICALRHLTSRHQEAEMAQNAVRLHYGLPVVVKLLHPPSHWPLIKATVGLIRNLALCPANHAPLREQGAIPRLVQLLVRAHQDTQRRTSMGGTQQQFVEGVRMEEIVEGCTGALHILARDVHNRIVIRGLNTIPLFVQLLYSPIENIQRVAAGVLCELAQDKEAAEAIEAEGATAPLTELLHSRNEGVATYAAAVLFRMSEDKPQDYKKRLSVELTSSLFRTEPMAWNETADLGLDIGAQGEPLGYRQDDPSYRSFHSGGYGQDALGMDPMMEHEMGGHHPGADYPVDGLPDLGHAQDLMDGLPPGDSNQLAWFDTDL
UniProt Q92973: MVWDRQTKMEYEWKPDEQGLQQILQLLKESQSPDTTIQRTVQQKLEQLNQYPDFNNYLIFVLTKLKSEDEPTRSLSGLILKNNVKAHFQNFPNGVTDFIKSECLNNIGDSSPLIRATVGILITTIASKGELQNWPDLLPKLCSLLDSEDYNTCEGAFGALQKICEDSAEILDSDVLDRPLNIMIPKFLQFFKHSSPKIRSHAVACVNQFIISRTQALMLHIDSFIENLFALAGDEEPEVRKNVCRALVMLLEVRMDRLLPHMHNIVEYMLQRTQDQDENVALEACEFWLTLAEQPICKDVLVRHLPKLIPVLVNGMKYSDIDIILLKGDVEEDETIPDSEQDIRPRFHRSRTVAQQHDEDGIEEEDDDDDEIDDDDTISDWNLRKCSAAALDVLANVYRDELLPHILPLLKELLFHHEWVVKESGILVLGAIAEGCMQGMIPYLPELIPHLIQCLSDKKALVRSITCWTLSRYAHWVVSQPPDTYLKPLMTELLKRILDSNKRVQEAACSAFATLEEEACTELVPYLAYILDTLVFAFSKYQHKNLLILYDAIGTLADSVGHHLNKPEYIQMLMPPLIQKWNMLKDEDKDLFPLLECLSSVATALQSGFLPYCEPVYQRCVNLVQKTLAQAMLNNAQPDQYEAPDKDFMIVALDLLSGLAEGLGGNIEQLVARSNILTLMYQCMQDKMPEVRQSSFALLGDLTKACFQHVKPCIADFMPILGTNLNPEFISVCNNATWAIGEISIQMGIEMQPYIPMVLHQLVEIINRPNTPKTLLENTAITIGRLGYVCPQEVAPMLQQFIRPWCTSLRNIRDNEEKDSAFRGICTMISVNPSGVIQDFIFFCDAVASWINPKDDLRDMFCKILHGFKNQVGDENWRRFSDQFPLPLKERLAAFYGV

These are yes or no findings as the source states them, for the method shown. Some binding calls cover weakened binding; strength is not graded here.

Assay [1] addresses GST-human β-catenin (human) (UniProt P35222). Description: pull-down; GST fusions immobilised on GT Sepharose beads, purified TNPO1 (GST removed) incubated 1 hr at 4°C; lysis buffer 50 mM Tris pH 7.4, 150 mM NaCl, 2 mM MgCl2, 10% glycerol, 0.05% NP-40, 1 mM DTT; SDS-PAGE, Coomassie; both purified.
Assay [2] shares this target. The assay can be described thus: pull-down; GST-hβ-catenin on GT beads incubated with TNPO1 1 hr at 4°C, then RanQ69L-GTP or dialysis buffer + GTP added for 1 hr at 4°C; SDS-PAGE, Coomassie; both purified.

Turning to “human Kap-β2/Transportin-1 (TNPO1), GST tag removed (from UniProt Q92973 1-898)”, the binding entry in assay [1] and in assay [2] was “binds” in each case.
